The test system of one test is UT-SCC-14. Briefly: drug sensitivity score (DSS); higher = more sensitive; extreme values may be limits of the assay. The note with it: culture condition: embedded in Matrigel; treatment time: 3 days. How it is done: (§1)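 HNSCC cell lines (500 cells/well, 384-well) were cultured on plastic, on top of (2D) or embedded (3D) in Matrigel or human leiomyoma matrix Myogel (500 ug/mL; Myogel 3D mixed with rat collagen I). Cells were treated for 3 days with 5 ten-fold concentrations of each drug, and viability was read by CellTiter-Glo. Viability was normalised to DMSO and benzethonium chloride controls and fitted with the FIMM DSRT pipeline to give IC50 (nM), maximal % inhibition and DSS. Suffixes _1/_2/_3 are replicates. Only inhibition-mode (IC50) fits are kept.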

The subject of another test is UT-SCC-42A. Described as above. The note with it: culture condition: embedded in Matrigel; treatment time: 3 days. As for the experimental part: as §1
The test system of another test is UT-SCC-24A. In words: drug sensitivity score (DSS); higher = more sensitive. The note with it: culture condition: embedded in Myogel + collagen I; treatment time: 3 days. How it is done:
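HNSCC cell lines (500 cells/well, 384-well) were cultured on plastic, on top of (2D) or embedded (3D) in Matrigel or human leiomyoma matrix Myogel (500 ug/mL; Myogel 3D mixed with rat collagen I). Cells were treated for 3 days with 5 ten-fold concentrations of each drug, and viability was read by CellTiter-Glo. Viability was normalised to DMSO (0% inhibition) and 100 uM benzethonium chloride (100% inhibition) controls and fitted with the FIMM DSRT pipeline to give IC50 (nM), maximal % inhibition and the drug sensitivity score (DSS). Suffixes _1/_2/_3 on drug names are replicates.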

Our source for the drug sensitivity score values is the supplement of paper PMC7017272.

± gives the standard deviation of the averaged measurements.

For `COc1cc2ncnc(Nc3ccc(F)c(Cl)c3)c2cc1OCCCN1CCOCC1` [Gefitinib], the results for the drug sensitivity score in the test with UT-SCC-14, in the test on UT-SCC-42A and with UT-SCC-24A were 6.33 ± 4.1 DSS, 5.27 ± 4.7 DSS and 6.37 ± 2.8 DSS, respectively.
